From publication PMC3764795
These are yes or no findings as the source states them, for the method shown. In cells and extracts the contact can be indirect. Binding calls can cover weak binding; strength is not graded here. For part of these data: Tags and fused reporters may be left off the sequences shown.

T1: GST-tagged cytosolic PRRG4 (GST-PRRG4cyto) (human) (UniProt Q9BZD6)
T1 sequence: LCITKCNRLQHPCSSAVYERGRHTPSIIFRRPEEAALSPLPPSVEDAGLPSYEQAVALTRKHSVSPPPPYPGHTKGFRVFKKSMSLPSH

T2: GST-PRRG4 Y207A (human) (UniProt Q9BZD6)
T2 sequence: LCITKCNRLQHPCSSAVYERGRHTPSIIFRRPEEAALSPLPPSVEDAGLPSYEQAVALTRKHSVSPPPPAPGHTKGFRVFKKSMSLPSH


Columns and labels:
[1] = target: T1, GST-tagged cytosolic PRRG4 (GST-PRRG4cyto) (human); test: pull-down; GST pulldown with GST-PRRG4cyto (wild type or mutant) or GST only made in E. coli; overexpressed or endogenous proteins of cells; Western blot with anti-FLAG or antibodies against the interacting proteins; only the target purified
GST-PRRG4 Y207A (human) = target: T2, GST-PRRG4 Y207A (human); test: as above
FLAG-tagged MAGI-1 = test: co-IP; cytosolic PRRG4 co-expressed with FLAG-tagged proteins in HEK293; anti-FLAG immunoprecipitation from lysates, immunoblot with anti-PRRG4

Row | binding [1] | binding (GST-PRRG4 Y207A (human)) | binding (FLAG-tagged MAGI-1) | Molecule
1 | binds | binds |  | FLAG-tagged MAGI-1
2 |  |  | binds | Cytosolic PRRG4 in a mammalian expression vector (domain or fragment, UniProt Q9BZD6 138-226) LCITKCNRLQHPCSSAVYERGRHTPSIIFRRPEEAALSPLPPSVEDAGLPSYEQAVALTRKHSVSPPPPYPGHTKGFRVFKKSMSLPSH
